Data on 1 substance can be found in patent US8501683B2 (priority 2008, dated 2013).

The series in a line: general procedure: hybrid (solid and solution phase) peptide synthesis; HATU. The settings on record: cyclisation step.

Square brackets hold non-standard residues; d marks the D form. MeBmt = C/C=C/C[C@@H](C)[C@@H](O)[C@H](NC)C(=O)O; NMeL = CN[C@@H](CC(C)C)C(=O)O; NMeV = CN[C@H](C(=O)O)C(C)C; dHiv = CC(C)[C@@H](O)C(=O)O; dNMeA = CN[C@H](C)C(=O)O; Abu = CC[C@H](N)C(=O)O

“cyclo([MeBmt][Abu][dNMeA][NMeV]L[NMeL]G[dHiv][NMeL]L[NMeV])”: the “final purity (method not given)” value is given as 99.38%.
